Data from the supplement of paper PMC3334620.
The full ranking holds about 33,000 sequences; the median of “E-score (-0.5 to 0.5)” is about -0.0059, and the highest 2% start at about 0.26. Some of the results follow.

molecular target: T1, Cin5 (UniProt P40917); assay: PBM E-score (8-mer binding enrichment) (E-score (-0.5 to 0.5)); higher = stronger / more preferred TF binding; details: protein concentration: 100 nM; construct: GST-full length
T1 sequence: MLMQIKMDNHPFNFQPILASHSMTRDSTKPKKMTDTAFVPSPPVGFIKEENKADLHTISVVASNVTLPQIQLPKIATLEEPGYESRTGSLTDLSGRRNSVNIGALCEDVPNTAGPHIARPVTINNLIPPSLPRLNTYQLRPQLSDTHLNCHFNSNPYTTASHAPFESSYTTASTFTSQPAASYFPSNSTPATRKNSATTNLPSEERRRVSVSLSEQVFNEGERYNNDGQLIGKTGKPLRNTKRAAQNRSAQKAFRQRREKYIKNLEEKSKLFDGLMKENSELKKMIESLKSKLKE
Protocol: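 Universal 'all 10-mer' protein binding microarrays (Agilent AMADID 015681) probed with GST-tagged S. cerevisiae TFs (full-length or DBD) made by in vitro transcription/translation (PURExpress), about 100-200 nM. Bound TF was detected with fluorescent anti-GST. Each ungapped 8-mer (which stands for itself and its reverse complement) is scored by the PBM enrichment score (E-score), a modified Wilcoxon-Mann-Whitney statistic from -0.5 to +0.5, computed with the Universal PBM Analysis Suite. Scale: above 0.35 generally sequence-specific binding.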

Sequence	PBM E-score
ACACGACT	-0.156
CATCGCAA	-0.0853
GAACCTGA	-0.00532
CAGCTTAA	0.0109
AACTTCAA	0.0253
CTACGCGA	-0.096
ATAAAACC	0.139
GTGAAATA	0.0495
ATAAGAGA	0.16
CATGACAG	-0.0563
ATACATAG	0.159
AACCAATC	0.194
TGGACCCA	-0.0652
AAGCGAGC	0.18
GGACACCC	-0.226
GCAAGCGC	-0.017
ACGAAAGT	0.133
AAATGAGT	0.21
ATACTCTA	0.0717
AACCCGTC	-0.116
GCAGTAAC	-0.237
GTCGCCGA	-0.117
ACTTCAAC	-0.00633
AAAAACTA	0.0786
GAGACACA	0.00028

Some of the entries above, set out differently.
Sequence | PBM E-score
AACTTCAA | 0.0253
CTACGCGA | -0.096
ATAAAACC | 0.139
GTGAAATA | 0.0495
ATAAGAGA | 0.16

Following part:

Sequence	PBM E-score
AGAACCGC	0.117
AGACACTC	-0.111
CTTAGTCC	-0.117
TCACTAGA	0.12
TACCGCTA	0.0715
TAGCCGAA	0.0339
CGTGTGGA	-0.0783
CAGTAATG	0.0733
CGTTATAC	-0.0892
CCTCGGCC	-0.0813
ACACCCAC	0.144
CAAATAAG	-0.086
AGTAACTA	0.149
ATTAGATG	0.239
CATTCAAC	-0.0112
TAAGGGAA	-0.079
CATCCGGC	-0.0699
TTAAAGAA	-0.00642
GTGGTCCA	0.0011
GTGCATAA	-0.0377
ACCATGAA	0.121
ACCAAACT	0.133
GCTTCCAC	-0.202
AGTTGGCC	-0.172
ATGCCAGA	0.0954

Sequence	PBM E-score
CGGGCGCC	-0.187
AATTGAGG	0.142
AAGATCCT	0.0447
GCCCAAGA	-0.103
ATATATCA	0.134
ACCGCCTC	-0.222
ACGGGACA	-0.0493
CAGATTTA	0.186
AAGGCAAC	0.0531
CTATTCAG	0.115
AAGGTCGC	0.0237
ACAGATCT	0.0391
AGAGGGGC	-0.275
AATCACCC	0.123
GCTGTAAC	0.0763
AAAGATAC	0.186
AGCGACTC	-0.168
GTGGTGTA	-0.00778
GCTAGTCA	-0.0552
GGTGAAAA	0.104
CGCAGAGA	-0.0316
AATAAATA	0.293
AGCTCCTG	-0.18
AATAAAGG	-0.145
TGAGTTAA	0.128

Sequence	PBM E-score
AGGGCACC	-0.309
CCCAAGAG	-0.215
AGAAGCCG	0.0323
GATCTCCC	-0.208
ACAACAAT	0.105
ATGCAGTC	-0.21
CACCCGAG	-0.0536
ACTTGGCT	0.0137
AGCTATTC	0.0122
CTAACAGA	0.159
GGCGCTCA	-0.193
TACGGCGA	0.00687
GTACAATA	0.0473
AGAGCATC	-0.00343
GGCGGCGA	-0.0979
CCGAGTAC	-0.0705
CCTATAAC	-0.172
ATATATCG	0.212
AAGTCGTA	-0.0647
CAGACCTC	-0.203
GGGGGCAA	-0.206
ACTCCCTG	-0.0621
AGTCAACA	0.142
CAGGGCAA	0.0426
CATCAAGA	0.0358

Sequence	PBM E-score
AACGTAAC	0.217
AAAAGTCT	-0.132
TGAATACA	0.125
CAAAATAG	0.0505
AGCATGGA	-0.135
AGCGACAG	0.00675
AGTGCACC	0.068
ACACACAG	0.0711
CCAGGATA	0.0426
CATGCGGA	-0.16
ACGTTATA	0.158
CAGCACGC	-0.0979
CGCACCCA	-0.0536
ATGATGAG	0.152
ACAACGGC	-0.0342
GTCTACTA	0.0678
ACAACCCA	0.177
AGTGCATC	0.034
AAGGGAGG	-0.285
CGTCGACG	-0.16
GTAGTTGA	0.166
AAGGCGGA	0.0283
CATCTTAA	0.103
GCACCTCA	0.0524
AACCTGAG	0.0302

Sequence	PBM E-score
CTCAACGC	-0.0933
CGAGGTAG	-0.212
AAATGACG	0.103
CGCTTCAG	-0.043
GAAAGAGC	-0.0616
CCCAAACG	-0.165
ATGCACGG	-0.119
CCCACGGC	-0.145
GCAGGCCA	-0.116
GAATATGA	0.0468
AGGGTCTA	-0.189
ACCGTTGG	-0.177
CATTAGTC	0.0189
ACATGAGG	-0.118
CTTTTACA	0.167
ATCCCACA	-0.0391
ACGGGGTC	-0.213
ATTCAGCC	-0.0468
CGAAAGAC	1e-05
GGTGTAAC	0.0363
ACGGCGCA	-0.00841
GATGTCCA	0.0429
TGAGTGAA	0.105
GTAGGGCA	0.0381
ATCCCTTG	-0.112

Sequence	PBM E-score
GAGATACC	0.124
CAAGGAAG	-0.0363
AGGCAGCG	-0.159
ATCAGAAG	0.121
CACCTCAC	0.0966
CTTGTATC	0.0672
GCCGGACC	-0.38
TACCGCGA	-0.0146
GTGAAAGA	0.0233
AGTAGTTG	0.173
CTGACCTC	-0.0899
AAATCGTG	0.253
AAAAAACG	0.125
GGAATTTA	0.178
AACCTCCC	-0.139
CGGTGATA	0.0249
CTATCGCC	-0.181
AAGCAACT	0.0799
CGCTAATC	0.0702
CCGTTAGC	-0.101
CAGATTCC	-0.0124
ACCAATCT	0.131

Some values from the entries so far:
Value for GAGATACC under PBM E-score: 0.124
Value for CGCTAATC under PBM E-score: 0.0702
